Laboratory results from patent publication US20130303465A1, “Cylodextrin Complexation Methods for Formulating Peptide Proteasome Inhibitors” (ONYX THERAPEUTICS, INC., priority 2012, published 2013).
The name of at least one read-out is uncertain.

Assay: Slurry complexation of CFZ-API with SBECD and citric acid: dissolved complexed concentration
Format: physicochemical
Conditions: SBECD complexation, FIG. 1
Method: In a 525 L stainless steel jacketed cooled tank controlled to 2° C.-8° C., a suspension of 2.0 kg carfilzomib-API (CFZ-API), 246 kg water for injection (WFI), and 100 kg sulfobutylether beta-cyclodextrin (SBECD) was prepared. Specifically, in the 525 L stainless steel jacketed cooled tank controlled to 2° C.-8° C., 100 kg SBECD was dissolved in 246 kg WFI. The Carfilzomib suspension was then prepared using 2.0 kg of CFZ-API. Mixing was performed using an impeller mixer to maintain suspension of the CFZ-API solids and dissolve the SBECD. In the same vessel, a probe style rotor-stator high shear mixer (homogenizer) was used as well as the low shear impeller. The high shear mixer was operated for approximately 1 hour yielding an even suspension and reduction of particle size for any larger primary particles or agglomerated API. After a suspension was achieved, 1.96 kg of citric acid was added as a 16% aqueous solution. The pH of the solution was then lowered inducing partial solubilization of the CFZ-API followed by and complexation due to the presence of SBECD. Mixing was continued for a further 24 hours with both the impeller and the high shear mixer and a dissolved concentration of CFZ-API of greater than 5.1 mg/mL was achieved. […]

CC(C)C[C@H](NC(=O)[C@H](CCc1ccccc1)NC(=O)CN1CCOCC1)C(=O)N[C@@H](Cc1ccccc1)C(=O)N[C@@H](CC(C)C)C(=O)[C@@]1(C)CO1 [carfilzomib]
solubilization of the CFZ-API over time (slurry based complexation): greater than 5 milligrams per milliliter
